No constants are given. Whether binding was seen depends on the method and setting. Binding calls can cover weak binding; strength is not graded here. For some of these results: In cells and extracts the contact can be indirect. For some of these results: Sequences can lack the tags named with a protein.
T1: OsbZIP23-GFP (rice (Oryza sativa)) (UniProt Q6Z312)
T1 sequence: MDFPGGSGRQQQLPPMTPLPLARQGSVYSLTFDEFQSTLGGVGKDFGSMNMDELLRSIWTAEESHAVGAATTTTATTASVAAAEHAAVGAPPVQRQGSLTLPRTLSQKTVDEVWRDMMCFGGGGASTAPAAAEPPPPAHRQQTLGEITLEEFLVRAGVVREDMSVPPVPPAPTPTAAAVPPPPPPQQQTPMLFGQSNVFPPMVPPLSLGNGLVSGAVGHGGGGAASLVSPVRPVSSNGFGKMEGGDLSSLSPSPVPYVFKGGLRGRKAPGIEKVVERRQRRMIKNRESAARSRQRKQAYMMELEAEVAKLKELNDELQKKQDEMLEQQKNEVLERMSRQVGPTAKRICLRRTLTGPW


What was measured:
[1] = molecular target: T1, OsbZIP23-GFP (rice (Oryza sativa)); assay: co-IP; GFP or OsbZIP23-GFP coexpressed with OsGF14f-6HA in N. benthamiana leaves; extracts in Co-IP buffer (50 mM Tris-HCl pH 8.0, 150 mM NaCl, 1 mM EDTA, 0.5% Triton X-100, 1 mM DTT) incubated with GFP-Trap magnetic beads 3 h at 4 °C; blots with anti-GFP and anti-HA
[2] = molecular target: G-BOX FACTOR 14-3-3f (14-3-3 protein OsGF14f), bait in pGBKT7 (rice (Oryza sativa)); assay: two-hybrid; targeted assay: bait pGBKT7-OsGF14f and prey pGADT7 constructs cotransformed into yeast AH109; growth in 10-, 100- and 1000-fold dilutions on SD lacking Leu, Trp, Ade and His, 30 °C
[3] = molecular target: cLUC-OsGF14f (rice (Oryza sativa)); assay: split reporter; firefly luciferase complementation imaging (LCI) in N. benthamiana leaves, 3 d after infiltration; also with 10 µM ABA for 4 h before imaging (signal enhanced)

Row | binding [2] | Molecule | also measured
1 |  | OsGF14f-6HA (rice (Oryza sativa)) | binding [1]: binds
2 | binds | basic leucine zipper 46 (OsbZIP46) in pGADT7 (protein, UniProt Q69TW5 1-324) MELPADGSALARQGSIYSLTFDEFQSALGSAEKDFGSMNMDELLRNIWTAEESQAIAPAAAAASAAAVVGDAQQQQQPIQRQGSLTLPRTLSQKTVDEVWRDIMGLGGSDDEDPAAAAAAAAPAQRQPTLGEMTLEEFLVRAGVVREDMGQTIVLPPQAQALFPGSNVVAPAMQLANGMLPGVVGVAPGAAAAMTVAAPATPVVLNGLGKVEGGDLSSLSPVPYPFDTALRVRKGPTVEKVVERRQRRMIKNRESAARSRARKQAYIMELEAEVAKLKEQKAELQKKQVEMIQKQNDEVMERITQQLGPKAKRFCLRRTLTGPC | 
3 | binds | BASIC LEUCINE ZIPPER 23 (OsbZIP23), full length in the prey vector pGADT7 (protein, UniProt Q6Z312 1-357) MDFPGGSGRQQQLPPMTPLPLARQGSVYSLTFDEFQSTLGGVGKDFGSMNMDELLRSIWTAEESHAVGAATTTTATTASVAAAEHAAVGAPPVQRQGSLTLPRTLSQKTVDEVWRDMMCFGGGGASTAPAAAEPPPPAHRQQTLGEITLEEFLVRAGVVREDMSVPPVPPAPTPTAAAVPPPPPPQQQTPMLFGQSNVFPPMVPPLSLGNGLVSGAVGHGGGGAASLVSPVRPVSSNGFGKMEGGDLSSLSPSPVPYVFKGGLRGRKAPGIEKVVERRQRRMIKNRESAARSRQRKQAYMMELEAEVAKLKELNDELQKKQDEMLEQQKNEVLERMSRQVGPTAKRICLRRTLTGPW | 
4 |  | OsbZIP23-nLUC (protein, UniProt Q6Z312 1-357) MDFPGGSGRQQQLPPMTPLPLARQGSVYSLTFDEFQSTLGGVGKDFGSMNMDELLRSIWTAEESHAVGAATTTTATTASVAAAEHAAVGAPPVQRQGSLTLPRTLSQKTVDEVWRDMMCFGGGGASTAPAAAEPPPPAHRQQTLGEITLEEFLVRAGVVREDMSVPPVPPAPTPTAAAVPPPPPPQQQTPMLFGQSNVFPPMVPPLSLGNGLVSGAVGHGGGGAASLVSPVRPVSSNGFGKMEGGDLSSLSPSPVPYVFKGGLRGRKAPGIEKVVERRQRRMIKNRESAARSRQRKQAYMMELEAEVAKLKELNDELQKKQDEMLEQQKNEVLERMSRQVGPTAKRICLRRTLTGPW | binding [3]: binds
